Test results as given in paper PMC12034760, “FBL promotes hepatocellular carcinoma tumorigenesis and progression by recruiting YY1 to enhance CAD gene expression” (Cell Death & Disease, 2025).
These are yes or no findings as the source states them, for the method shown. In cells and extracts the contact can be indirect. Some entries that bind do so weakly or less than the wild type. For some assays here: Where a sequence is shown, tags or fusion partners need not be part of it. Values belong to the molecule of their own block, whether it stands above or below them.

Sequences of proteins named here, by UniProt entry; tags and fusion partners are left off.
UniProt P25490: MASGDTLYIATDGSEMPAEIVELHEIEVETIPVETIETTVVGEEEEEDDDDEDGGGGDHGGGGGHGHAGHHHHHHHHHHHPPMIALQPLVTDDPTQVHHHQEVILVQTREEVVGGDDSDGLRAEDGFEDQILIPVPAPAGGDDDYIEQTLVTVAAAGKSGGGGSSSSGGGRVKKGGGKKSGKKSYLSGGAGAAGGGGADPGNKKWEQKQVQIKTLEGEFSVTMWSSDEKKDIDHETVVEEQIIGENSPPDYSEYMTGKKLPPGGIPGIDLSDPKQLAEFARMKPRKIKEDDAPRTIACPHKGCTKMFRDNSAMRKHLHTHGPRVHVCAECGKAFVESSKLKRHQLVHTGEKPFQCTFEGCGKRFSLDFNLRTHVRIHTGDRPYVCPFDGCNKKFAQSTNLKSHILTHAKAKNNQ

Legend:
[1] = target: T1, His-tagged FBL (UniProt P22087); assay: co-IP; His-tagged FBL and flag-tagged YY1 plasmids transiently transfected into HEK293T cells; immunoprecipitation with anti-His antibody, Western blot for flag-YY1 (the legend calls it an in vitro pull-down assay)
T1 sequence: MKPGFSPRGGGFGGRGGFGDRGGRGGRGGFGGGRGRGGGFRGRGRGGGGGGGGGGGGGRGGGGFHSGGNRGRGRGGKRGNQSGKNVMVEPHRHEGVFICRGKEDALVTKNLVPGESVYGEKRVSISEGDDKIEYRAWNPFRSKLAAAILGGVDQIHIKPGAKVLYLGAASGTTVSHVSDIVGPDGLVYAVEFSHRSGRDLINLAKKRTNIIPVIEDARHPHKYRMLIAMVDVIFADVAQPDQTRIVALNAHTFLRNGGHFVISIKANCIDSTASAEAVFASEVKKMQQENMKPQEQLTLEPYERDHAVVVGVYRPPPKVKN

[2] = target: T2, FBL-TAD protein (transactivation domain of FBL) (UniProt P22087); assay: pull-down; FBL-TAD protein as bait, endogenous YY1 of Huh-1 and HCCLM3 cells
T2 sequence: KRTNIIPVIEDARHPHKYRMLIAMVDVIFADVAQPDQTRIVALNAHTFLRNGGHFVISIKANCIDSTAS

[3] = target: T2, FBL-TAD protein (transactivation domain of FBL); assay: co-IP; IP of FBL-TAD proteins and YY1 in Huh-1 cells treated with different concentrations of fludarabine phosphate
[4] = target: flag-tagged YY1 (UniProt P25490); assay: co-IP; His-tagged FBL and flag-tagged YY1 plasmids transiently transfected into HEK293T cells; immunoprecipitation with anti-His antibody, Western blot for flag-YY1 (the legend calls it an in vitro pull-down assay)
[5] = target: endogenous YY1 (human (endogenous in Huh-1 and HCCLM3)) (UniProt P25490); assay: co-IP; endogenous proteins in HCCLM3 cells, with anti-FBL or anti-YY1 antibodies

Molecule: flag-tagged YY1 (from UniProt P25490 1-414)
- binding [1]: binds

Molecule: endogenous YY1 (from UniProt P25490 1-414)
- binding [2]: binds
- binding [3]: binds

The remaining lines, values ahead:

- binding [4]: binds
B1: His-tagged FBL (protein, UniProt P22087 1-321)
chain: T1 sequence

- binding [5]: binds
B2: endogenous FBL (protein, UniProt P22087 1-321)
chain: T1 sequence
